# Experimental data taken from publication PMC11005723, “Development of Complementary Photo‐arginine/lysine to Promote Discovery of Arg/Lys hPTMs Interactomes” (Advanced Science, 2024).
# Further values from the same series stand in other lists.
# System: HEK293T nuclear lysates
# Assay: SILAC‐based pull‐down proteomics H4K5me2/H4K5 (probes 7/5)
# Assay type: binding, human
# Conditions: for E6 log2 (H4K5me2/H4K5): run E6; for F6 log2 (H4K5me2/H4K5): run F6
substance,measurement,setting,value
probe 7: H4K5me2 peptide probe with photo‐arginine R(dz) and K(biotin) (SGRGKGGKGLGKGGK; photo-arginine R(dz) at 3; dimethyl-lysine at 5; K(biotin) at 15),E6 log2 (H4K5me2/H4K5),protein A0A1X7SBZ2 DDX17,0.3284
same,F6 log2 (H4K5me2/H4K5),protein A0A1X7SBZ2 DDX17,0.2858
same,E6 log2 (H4K5me2/H4K5),protein A0A3B3IRI2 CTPS1,0.2716
same,F6 log2 (H4K5me2/H4K5),protein A0A3B3IRI2 CTPS1,0.175
same,E6 log2 (H4K5me2/H4K5),protein A0A087WUK2 HNRNPDL,0.3167
same,F6 log2 (H4K5me2/H4K5),protein A0A087WUK2 HNRNPDL,0.2835
same,E6 log2 (H4K5me2/H4K5),protein A0A087WWS1 THOC1,0.2097
same,F6 log2 (H4K5me2/H4K5),protein A0A087WWS1 THOC1,0.02318
same,E6 log2 (H4K5me2/H4K5),protein A0A087WX29 TARDBP,0.3505
same,F6 log2 (H4K5me2/H4K5),protein A0A087WX29 TARDBP,0.3556
same,E6 log2 (H4K5me2/H4K5),protein A0A286YF22 PHGDH,0.3667
same,F6 log2 (H4K5me2/H4K5),protein A0A286YF22 PHGDH,0.4108
same,E6 log2 (H4K5me2/H4K5),protein A0A494C1G8 SP3,0.2575
same,F6 log2 (H4K5me2/H4K5),protein A0A494C1G8 SP3,-0.03927
same,E6 log2 (H4K5me2/H4K5),protein B1AK87 CAPZB,0.3528
same,F6 log2 (H4K5me2/H4K5),protein B1AK87 CAPZB,0.3183
same,E6 log2 (H4K5me2/H4K5),protein B5MDQ0 ERCC6L,0.3213
same,F6 log2 (H4K5me2/H4K5),protein B5MDQ0 ERCC6L,0.08647
same,E6 log2 (H4K5me2/H4K5),protein B7Z7P8 ETF1,0.3032
same,F6 log2 (H4K5me2/H4K5),protein B7Z7P8 ETF1,0.3922
same,E6 log2 (H4K5me2/H4K5),protein B7ZAR1 CCT5,0.2917
same,F6 log2 (H4K5me2/H4K5),protein B7ZAR1 CCT5,0.4373
same,E6 log2 (H4K5me2/H4K5),protein D6R9P3 HNRNPAB,0.3354
same,F6 log2 (H4K5me2/H4K5),protein D6R9P3 HNRNPAB,-0.05686
same,E6 log2 (H4K5me2/H4K5),protein E9PCY7 HNRNPH1,0.3601
same,F6 log2 (H4K5me2/H4K5),protein E9PCY7 HNRNPH1,0.3078
same,E6 log2 (H4K5me2/H4K5),protein E9PG73 PPIG,0.288
same,F6 log2 (H4K5me2/H4K5),protein E9PG73 PPIG,-0.669
same,E6 log2 (H4K5me2/H4K5),protein E9PJD9 RPL27A,0.3067
same,F6 log2 (H4K5me2/H4K5),protein E9PJD9 RPL27A,-0.08318
same,E6 log2 (H4K5me2/H4K5),protein F5H783 STIP1,0.2176
same,F6 log2 (H4K5me2/H4K5),protein F5H783 STIP1,0.1355
same,E6 log2 (H4K5me2/H4K5),protein F8W1R7 MYL6,0.2038
same,F6 log2 (H4K5me2/H4K5),protein F8W1R7 MYL6,0.06067
same,E6 log2 (H4K5me2/H4K5),protein H0YDJ3 PRPF4B,0.2441
same,F6 log2 (H4K5me2/H4K5),protein H0YDJ3 PRPF4B,-0.4152
same,E6 log2 (H4K5me2/H4K5),protein I3L0M3 MAZ,0.3234
same,F6 log2 (H4K5me2/H4K5),protein I3L0M3 MAZ,-0.1208
same,E6 log2 (H4K5me2/H4K5),protein J3QT28 BUB3,0.2499
same,F6 log2 (H4K5me2/H4K5),protein J3QT28 BUB3,0.415
same,E6 log2 (H4K5me2/H4K5),protein O15042 U2SURP,0.249
same,F6 log2 (H4K5me2/H4K5),protein O15042 U2SURP,0.1825
same,E6 log2 (H4K5me2/H4K5),protein O43390 HNRNPR,0.2428
same,F6 log2 (H4K5me2/H4K5),protein O43390 HNRNPR,0.04676
same,E6 log2 (H4K5me2/H4K5),protein O43776 NARS,0.362
same,F6 log2 (H4K5me2/H4K5),protein O43776 NARS,0.5639
same,E6 log2 (H4K5me2/H4K5),protein O43929 ORC4,0.2563
same,F6 log2 (H4K5me2/H4K5),protein O43929 ORC4,0.2733
same,E6 log2 (H4K5me2/H4K5),protein O60934 NBN,0.2231
same,F6 log2 (H4K5me2/H4K5),protein O60934 NBN,-0.0703
same,E6 log2 (H4K5me2/H4K5),protein O75131 CPNE3,0.231
same,F6 log2 (H4K5me2/H4K5),protein O75131 CPNE3,0.1031
same,E6 log2 (H4K5me2/H4K5),protein O94906 PRPF6,0.334
same,F6 log2 (H4K5me2/H4K5),protein O94906 PRPF6,-0.2379
same,E6 log2 (H4K5me2/H4K5),protein O95232 LUC7L3,0.2019
same,F6 log2 (H4K5me2/H4K5),protein O95232 LUC7L3,0.2014
same,E6 log2 (H4K5me2/H4K5),protein O96019 ACTL6A,0.2097
same,F6 log2 (H4K5me2/H4K5),protein O96019 ACTL6A,0.562
same,E6 log2 (H4K5me2/H4K5),protein O96028 WHSC1,0.3043
same,F6 log2 (H4K5me2/H4K5),protein O96028 WHSC1,0.2369
same,E6 log2 (H4K5me2/H4K5),protein P07195 LDHB,0.3858
same,F6 log2 (H4K5me2/H4K5),protein P07195 LDHB,0.3065
same,E6 log2 (H4K5me2/H4K5),protein P07355 ANXA2,0.2408
same,F6 log2 (H4K5me2/H4K5),protein P07355 ANXA2,0.08198
same,E6 log2 (H4K5me2/H4K5),protein P08621 SNRNP70,0.1791
same,F6 log2 (H4K5me2/H4K5),protein P08621 SNRNP70,-0.07961
same,E6 log2 (H4K5me2/H4K5),protein P09936 UCHL1,0.3837
same,F6 log2 (H4K5me2/H4K5),protein P09936 UCHL1,0.4055
same,E6 log2 (H4K5me2/H4K5),protein P10809 HSPD1,0.2112
same,F6 log2 (H4K5me2/H4K5),protein P10809 HSPD1,0.1765
same,E6 log2 (H4K5me2/H4K5),protein P11142 HSPA8,0.2979
same,F6 log2 (H4K5me2/H4K5),protein P11142 HSPA8,0.3312
same,E6 log2 (H4K5me2/H4K5),protein P11586 MTHFD1,0.2893
same,F6 log2 (H4K5me2/H4K5),protein P11586 MTHFD1,-0.1283
same,E6 log2 (H4K5me2/H4K5),protein P13639 EEF2,0.2414
same,F6 log2 (H4K5me2/H4K5),protein P13639 EEF2,0.2692
same,E6 log2 (H4K5me2/H4K5),protein P14618 PKM,0.2929
same,F6 log2 (H4K5me2/H4K5),protein P14618 PKM,0.3389
same,E6 log2 (H4K5me2/H4K5),protein P17987 TCP1,0.2432
same,F6 log2 (H4K5me2/H4K5),protein P17987 TCP1,0.2331
same,E6 log2 (H4K5me2/H4K5),protein P22087 FBL,0.2496
same,F6 log2 (H4K5me2/H4K5),protein P22087 FBL,0.1529
same,E6 log2 (H4K5me2/H4K5),protein P22102 GART,0.3572
same,F6 log2 (H4K5me2/H4K5),protein P22102 GART,0.1465
same,E6 log2 (H4K5me2/H4K5),protein P23526 AHCY,0.3481
same,F6 log2 (H4K5me2/H4K5),protein P23526 AHCY,0.5326
same,E6 log2 (H4K5me2/H4K5),protein P25205 MCM3,0.2192
same,F6 log2 (H4K5me2/H4K5),protein P25205 MCM3,-0.008369
same,E6 log2 (H4K5me2/H4K5),protein P25398 RPS12,0.2818
same,F6 log2 (H4K5me2/H4K5),protein P25398 RPS12,0.2555
same,E6 log2 (H4K5me2/H4K5),protein P27348 YWHAQ,0.2059
same,F6 log2 (H4K5me2/H4K5),protein P27348 YWHAQ,0.3151
same,E6 log2 (H4K5me2/H4K5),protein P30041 PRDX6,0.2843
same,F6 log2 (H4K5me2/H4K5),protein P30041 PRDX6,0.3778
same,E6 log2 (H4K5me2/H4K5),protein P30101 PDIA3,0.2983
same,F6 log2 (H4K5me2/H4K5),protein P30101 PDIA3,0.2113
same,E6 log2 (H4K5me2/H4K5),protein P33993 MCM7,0.3416
same,F6 log2 (H4K5me2/H4K5),protein P33993 MCM7,0.3599
same,E6 log2 (H4K5me2/H4K5),protein P35249 RFC4,0.4005
same,F6 log2 (H4K5me2/H4K5),protein P35249 RFC4,0.3707
same,E6 log2 (H4K5me2/H4K5),protein P36873 PPP1CC,0.2147
same,F6 log2 (H4K5me2/H4K5),protein P36873 PPP1CC,0.5752
same,E6 log2 (H4K5me2/H4K5),protein P41091 EIF2S3,0.22
same,F6 log2 (H4K5me2/H4K5),protein P41091 EIF2S3,0.4328
same,E6 log2 (H4K5me2/H4K5),protein P42166 TMPO,0.1875
same,F6 log2 (H4K5me2/H4K5),protein P42166 TMPO,0.1804
same,E6 log2 (H4K5me2/H4K5),protein P43246 MSH2,0.1997
same,F6 log2 (H4K5me2/H4K5),protein P43246 MSH2,0.3888
same,E6 log2 (H4K5me2/H4K5),protein P43487 RANBP1,0.2108
same,F6 log2 (H4K5me2/H4K5),protein P43487 RANBP1,0.05649
same,E6 log2 (H4K5me2/H4K5),protein P50990 CCT8,0.3576
